# Results: patent publication US10549006B2, “High-coverage, low odor malodor counteractant compounds and methods of use” (International Flavors & Fragrances Inc., priority 2014, dated 2020)
# Assay: Organoleptic evaluation: odor character and intensity (averaged sensory scores)
# Settings: odor description
# Method: (i) The organoleptic characters of the compounds (i.e., Compounds 1-6) were evaluated using an intensity scale of 0 to 3, where 0=none, 1=low and 3=strong. Averaged sensory scores were reported in the following: […]
row,SMILES,Character (organoleptic)
1,"CC(C)CC1OC(C)CCC1C(C)CC=O (stereo not drawn) [Compound 3, 3-[6-methyl-2-(2-methylpropyl)tetrahydro-2H-pyran-3-yl]butanal]","Buttery, mushroom, chemical"
2,"CCCCCCOC1CCC(C)(C)O1 (stereo not drawn) [Compound 4, 5-hexyloxy-2,2-dimethyl-tetrahydro-furan]","Sweet, aldehydic, buttery"
3,"CCOC1C(C)CCCC1C (stereo not drawn) [Compound 2, 2-ethoxy-1,3-dimethyl-cyclohexane]","Spicy, camphor, fruity, apple"
4,"CC(=O)C(C)C(C)C(C)C (stereo not drawn) [Compound 6, 3,4,5-trimethyl-hexan-2-one]","Herbal, green, metallic, medicinal"
5,"COC1CCC(C(C)C)CC1 (stereo not drawn) [Compound 1, 1-methoxy-4-(methylethyl)-cyclohexane]","Light, camphoraceous, minty, terpineol-like"
6,"CC(C)C(C)C(C)C(C)O (stereo not drawn) [Compound 5, 3,4,5-trimethyl-hexan-2-ol]","Herbal, medicinal, fruity, dirty"
